In the supplement of paper PMC6411743:
± gives the standard deviation of the averaged measurements. This is a selection; strong and weak results do not stand in their true shares.

Sequences of proteins named here, by UniProt entry; tags and fusion partners are left off. A change or cut given only in a name is not applied to a line headed by its entry.
UniProt Q9UHQ4: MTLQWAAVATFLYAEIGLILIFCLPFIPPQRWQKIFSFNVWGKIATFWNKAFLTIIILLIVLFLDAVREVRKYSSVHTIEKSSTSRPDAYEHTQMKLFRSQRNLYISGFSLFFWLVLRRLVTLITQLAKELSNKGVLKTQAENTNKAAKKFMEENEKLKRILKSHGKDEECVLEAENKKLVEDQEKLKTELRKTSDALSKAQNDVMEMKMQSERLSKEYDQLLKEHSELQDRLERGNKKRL
UniProt Q9UNY4: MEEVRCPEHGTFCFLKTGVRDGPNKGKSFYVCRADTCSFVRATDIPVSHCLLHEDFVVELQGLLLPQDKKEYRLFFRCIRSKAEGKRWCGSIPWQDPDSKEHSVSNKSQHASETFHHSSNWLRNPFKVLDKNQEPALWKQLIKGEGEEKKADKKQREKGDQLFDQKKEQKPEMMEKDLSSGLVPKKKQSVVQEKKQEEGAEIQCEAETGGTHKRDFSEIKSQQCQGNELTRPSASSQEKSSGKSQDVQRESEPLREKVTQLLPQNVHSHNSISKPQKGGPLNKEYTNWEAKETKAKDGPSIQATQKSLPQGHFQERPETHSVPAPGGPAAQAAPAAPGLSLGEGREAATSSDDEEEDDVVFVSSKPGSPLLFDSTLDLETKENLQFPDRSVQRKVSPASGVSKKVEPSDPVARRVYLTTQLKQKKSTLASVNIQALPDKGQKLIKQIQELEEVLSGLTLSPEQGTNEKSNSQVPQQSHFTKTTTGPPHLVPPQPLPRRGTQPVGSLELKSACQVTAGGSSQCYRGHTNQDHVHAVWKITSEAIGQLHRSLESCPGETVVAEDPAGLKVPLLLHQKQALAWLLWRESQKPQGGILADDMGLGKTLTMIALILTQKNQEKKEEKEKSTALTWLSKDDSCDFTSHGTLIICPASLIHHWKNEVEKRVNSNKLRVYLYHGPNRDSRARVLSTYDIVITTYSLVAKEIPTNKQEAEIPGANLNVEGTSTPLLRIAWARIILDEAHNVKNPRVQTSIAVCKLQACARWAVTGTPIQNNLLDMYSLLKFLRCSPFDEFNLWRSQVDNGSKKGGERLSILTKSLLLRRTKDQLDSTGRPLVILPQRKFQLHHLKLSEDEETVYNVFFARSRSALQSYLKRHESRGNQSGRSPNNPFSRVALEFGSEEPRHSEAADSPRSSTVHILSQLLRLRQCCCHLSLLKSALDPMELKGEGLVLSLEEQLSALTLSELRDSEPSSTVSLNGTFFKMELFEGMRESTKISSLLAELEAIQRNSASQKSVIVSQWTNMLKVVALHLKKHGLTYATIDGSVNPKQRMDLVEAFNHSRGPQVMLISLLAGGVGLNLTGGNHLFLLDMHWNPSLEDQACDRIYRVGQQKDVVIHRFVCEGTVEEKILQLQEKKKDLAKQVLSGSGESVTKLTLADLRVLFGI
UniProt Q9UBN7: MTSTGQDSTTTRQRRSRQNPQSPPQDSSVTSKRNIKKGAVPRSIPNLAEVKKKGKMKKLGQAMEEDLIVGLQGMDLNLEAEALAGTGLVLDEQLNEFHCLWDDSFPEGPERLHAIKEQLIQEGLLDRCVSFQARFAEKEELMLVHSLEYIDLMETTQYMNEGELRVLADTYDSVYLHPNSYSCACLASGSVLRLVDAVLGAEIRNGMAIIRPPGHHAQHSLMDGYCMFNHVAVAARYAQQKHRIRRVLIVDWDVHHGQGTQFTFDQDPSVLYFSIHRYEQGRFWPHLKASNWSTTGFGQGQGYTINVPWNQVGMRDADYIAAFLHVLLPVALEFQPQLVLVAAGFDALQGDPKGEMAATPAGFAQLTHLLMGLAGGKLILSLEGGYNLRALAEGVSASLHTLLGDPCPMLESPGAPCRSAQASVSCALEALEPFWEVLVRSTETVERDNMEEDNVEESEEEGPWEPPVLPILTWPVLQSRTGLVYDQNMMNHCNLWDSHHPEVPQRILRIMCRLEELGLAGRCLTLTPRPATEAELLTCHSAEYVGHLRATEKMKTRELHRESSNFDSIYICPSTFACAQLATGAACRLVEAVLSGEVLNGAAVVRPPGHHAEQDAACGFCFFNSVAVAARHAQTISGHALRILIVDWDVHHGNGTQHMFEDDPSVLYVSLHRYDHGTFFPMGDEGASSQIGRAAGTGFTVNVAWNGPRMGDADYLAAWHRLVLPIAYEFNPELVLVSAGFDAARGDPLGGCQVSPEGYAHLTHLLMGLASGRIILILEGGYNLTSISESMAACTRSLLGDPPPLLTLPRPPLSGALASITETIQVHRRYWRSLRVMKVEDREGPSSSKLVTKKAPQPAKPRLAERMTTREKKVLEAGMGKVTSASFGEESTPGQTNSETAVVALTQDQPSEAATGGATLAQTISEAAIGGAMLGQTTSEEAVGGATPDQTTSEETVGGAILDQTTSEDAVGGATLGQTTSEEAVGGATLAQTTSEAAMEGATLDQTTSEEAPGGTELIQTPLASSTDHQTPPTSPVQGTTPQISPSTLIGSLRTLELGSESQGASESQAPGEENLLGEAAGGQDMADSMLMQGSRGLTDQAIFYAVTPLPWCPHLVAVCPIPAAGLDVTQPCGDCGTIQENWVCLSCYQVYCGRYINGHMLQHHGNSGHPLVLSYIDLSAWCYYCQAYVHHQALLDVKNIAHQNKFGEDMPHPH
UniProt Q9P2D1: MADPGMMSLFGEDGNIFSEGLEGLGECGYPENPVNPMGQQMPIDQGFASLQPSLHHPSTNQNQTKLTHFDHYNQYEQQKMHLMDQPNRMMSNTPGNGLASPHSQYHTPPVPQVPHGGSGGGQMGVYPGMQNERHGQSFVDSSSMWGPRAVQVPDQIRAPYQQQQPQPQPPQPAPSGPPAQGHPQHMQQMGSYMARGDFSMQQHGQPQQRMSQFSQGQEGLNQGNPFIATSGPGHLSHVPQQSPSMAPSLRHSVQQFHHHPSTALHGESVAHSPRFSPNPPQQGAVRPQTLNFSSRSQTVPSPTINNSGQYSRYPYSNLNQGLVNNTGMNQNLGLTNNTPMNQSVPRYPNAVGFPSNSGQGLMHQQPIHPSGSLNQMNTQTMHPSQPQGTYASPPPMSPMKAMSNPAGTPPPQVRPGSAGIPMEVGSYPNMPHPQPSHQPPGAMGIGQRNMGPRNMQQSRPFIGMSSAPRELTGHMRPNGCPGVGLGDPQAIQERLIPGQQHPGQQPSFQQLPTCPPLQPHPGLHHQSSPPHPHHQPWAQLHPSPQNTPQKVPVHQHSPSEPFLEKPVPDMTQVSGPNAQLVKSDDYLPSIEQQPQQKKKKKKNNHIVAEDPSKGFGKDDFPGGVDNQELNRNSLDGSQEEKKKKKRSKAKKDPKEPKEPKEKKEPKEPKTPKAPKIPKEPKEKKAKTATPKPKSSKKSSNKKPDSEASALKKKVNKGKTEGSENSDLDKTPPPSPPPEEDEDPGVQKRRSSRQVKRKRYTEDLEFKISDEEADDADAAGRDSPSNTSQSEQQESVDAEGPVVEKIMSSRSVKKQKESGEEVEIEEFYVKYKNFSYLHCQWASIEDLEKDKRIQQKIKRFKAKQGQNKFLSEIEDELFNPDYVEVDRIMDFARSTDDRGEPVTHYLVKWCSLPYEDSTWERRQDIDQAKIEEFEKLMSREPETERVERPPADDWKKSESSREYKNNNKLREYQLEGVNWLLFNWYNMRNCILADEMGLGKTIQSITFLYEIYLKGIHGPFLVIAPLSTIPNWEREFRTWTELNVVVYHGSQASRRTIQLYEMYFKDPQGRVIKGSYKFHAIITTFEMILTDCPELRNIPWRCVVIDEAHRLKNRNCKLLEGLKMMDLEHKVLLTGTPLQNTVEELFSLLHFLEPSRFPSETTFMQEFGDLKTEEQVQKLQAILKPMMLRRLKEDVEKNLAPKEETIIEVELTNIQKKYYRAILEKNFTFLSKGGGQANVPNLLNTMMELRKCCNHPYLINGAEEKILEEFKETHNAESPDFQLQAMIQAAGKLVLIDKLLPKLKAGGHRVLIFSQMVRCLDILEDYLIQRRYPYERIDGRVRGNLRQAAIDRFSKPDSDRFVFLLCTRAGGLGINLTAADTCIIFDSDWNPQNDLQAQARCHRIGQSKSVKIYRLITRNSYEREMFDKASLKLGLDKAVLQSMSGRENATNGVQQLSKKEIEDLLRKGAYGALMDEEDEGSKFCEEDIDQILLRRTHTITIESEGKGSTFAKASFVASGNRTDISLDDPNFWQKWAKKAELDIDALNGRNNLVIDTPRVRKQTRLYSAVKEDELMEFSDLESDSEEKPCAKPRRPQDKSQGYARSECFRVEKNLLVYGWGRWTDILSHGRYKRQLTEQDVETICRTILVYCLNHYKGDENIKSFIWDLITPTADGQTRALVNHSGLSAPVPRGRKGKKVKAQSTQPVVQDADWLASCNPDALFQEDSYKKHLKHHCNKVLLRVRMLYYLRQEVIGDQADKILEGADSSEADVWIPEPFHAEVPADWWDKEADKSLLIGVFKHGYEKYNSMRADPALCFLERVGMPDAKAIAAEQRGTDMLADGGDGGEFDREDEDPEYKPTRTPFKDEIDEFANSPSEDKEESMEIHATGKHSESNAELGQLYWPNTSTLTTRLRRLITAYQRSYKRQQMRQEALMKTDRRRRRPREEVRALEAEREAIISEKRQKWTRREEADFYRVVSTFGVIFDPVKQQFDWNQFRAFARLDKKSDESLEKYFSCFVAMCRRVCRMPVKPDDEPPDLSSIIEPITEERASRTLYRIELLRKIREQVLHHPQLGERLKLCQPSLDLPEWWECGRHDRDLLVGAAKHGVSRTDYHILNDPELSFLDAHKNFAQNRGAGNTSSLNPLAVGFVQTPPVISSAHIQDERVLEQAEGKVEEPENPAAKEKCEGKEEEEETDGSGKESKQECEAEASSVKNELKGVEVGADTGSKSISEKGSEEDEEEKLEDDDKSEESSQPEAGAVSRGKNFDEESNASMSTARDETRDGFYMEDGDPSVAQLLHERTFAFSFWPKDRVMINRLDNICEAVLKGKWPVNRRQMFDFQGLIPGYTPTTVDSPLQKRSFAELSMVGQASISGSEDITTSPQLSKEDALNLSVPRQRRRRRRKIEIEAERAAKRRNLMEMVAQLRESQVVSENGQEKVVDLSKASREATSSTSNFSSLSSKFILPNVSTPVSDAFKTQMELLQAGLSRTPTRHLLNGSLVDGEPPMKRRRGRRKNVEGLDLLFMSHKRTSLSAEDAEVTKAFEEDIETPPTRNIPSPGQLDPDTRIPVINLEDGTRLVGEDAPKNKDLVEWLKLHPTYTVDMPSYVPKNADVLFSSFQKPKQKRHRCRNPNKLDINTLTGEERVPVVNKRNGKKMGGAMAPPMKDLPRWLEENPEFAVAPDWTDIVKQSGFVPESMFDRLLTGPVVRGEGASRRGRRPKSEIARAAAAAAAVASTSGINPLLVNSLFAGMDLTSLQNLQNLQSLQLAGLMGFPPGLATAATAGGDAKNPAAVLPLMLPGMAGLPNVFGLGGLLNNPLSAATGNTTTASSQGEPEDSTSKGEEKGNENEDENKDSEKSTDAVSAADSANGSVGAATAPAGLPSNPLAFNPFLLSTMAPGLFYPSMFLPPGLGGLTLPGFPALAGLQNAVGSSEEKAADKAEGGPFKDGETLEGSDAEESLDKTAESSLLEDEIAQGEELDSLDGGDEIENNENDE
UniProt Q9UK45: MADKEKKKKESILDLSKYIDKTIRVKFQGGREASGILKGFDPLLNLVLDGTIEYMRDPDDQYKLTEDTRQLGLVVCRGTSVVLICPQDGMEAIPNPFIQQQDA
UniProt Q9UER7, whole entry: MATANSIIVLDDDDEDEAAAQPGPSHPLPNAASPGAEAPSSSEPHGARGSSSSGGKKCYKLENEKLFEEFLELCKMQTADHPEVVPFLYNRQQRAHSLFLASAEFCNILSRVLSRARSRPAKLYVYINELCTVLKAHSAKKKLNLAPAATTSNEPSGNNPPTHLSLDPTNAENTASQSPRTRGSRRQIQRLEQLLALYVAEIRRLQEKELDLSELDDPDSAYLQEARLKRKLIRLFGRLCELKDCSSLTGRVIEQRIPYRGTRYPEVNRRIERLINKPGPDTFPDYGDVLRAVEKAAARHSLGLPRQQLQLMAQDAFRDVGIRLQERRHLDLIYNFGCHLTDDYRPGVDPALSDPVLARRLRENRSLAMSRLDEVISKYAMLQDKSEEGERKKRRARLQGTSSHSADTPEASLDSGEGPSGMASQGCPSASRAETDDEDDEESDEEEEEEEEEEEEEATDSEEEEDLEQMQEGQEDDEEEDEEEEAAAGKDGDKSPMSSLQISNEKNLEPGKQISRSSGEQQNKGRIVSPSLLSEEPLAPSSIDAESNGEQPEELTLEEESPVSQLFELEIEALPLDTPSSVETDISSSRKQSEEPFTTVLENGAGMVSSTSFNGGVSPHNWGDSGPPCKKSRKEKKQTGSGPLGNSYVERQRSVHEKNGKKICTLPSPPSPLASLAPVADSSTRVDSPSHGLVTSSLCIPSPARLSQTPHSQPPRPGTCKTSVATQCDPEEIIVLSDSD

Compound: Nc1ncnc2c1ncn2[C@@H]1O[C@H](COP(=O)(O)OP(=O)(O)OP(=O)(O)O)[C@@H](O)[C@H]1O [adenosine triphosphate]
Assay: NP40-soluble protein abundance relative to vehicle (solubility fold change) (ratio); higher = more soluble protein in presence of ATP
Outline: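 Data come from three independent experiments in which Dounce-homogenised Jurkat crude lysate was treated at eight concentrations from 0.1 to 10 mM. Treatment ran 10 min at room temperature and then 3 min at 37 °C, after which 0.8% NP40 and benzonase were added for 60 min at 4 °C before ultracentrifugation. The supernatant underwent TMT labelling and LC-MS/MS, and vsn-normalised intensities were expressed as fold change against the detergent-processed vehicle in each replicate.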

Target	NP40-soluble protein abundance (concentration: 1mM)	NP40-soluble protein abundance (concentration: 2mM)	NP40-soluble protein abundance (concentration: 4mM)	NP40-soluble protein abundance (concentration: 6mM)	NP40-soluble protein abundance (concentration: 8mM)	NP40-soluble protein abundance (concentration: 10mM)
UniProt Q9UJV9 and related entries	1.41 ± 0.093	1.41 ± 0.12	1.47 ± 0.15	1.45 ± 0.14	1.51 ± 0.16	1.52 ± 0.16
UniProt Q9UHQ4 and related entries	0.934 ± 0.06	0.961 ± 0.039	0.946 ± 0.063	1.02 ± 0.022	0.917 ± 0.047	0.954 ± 0.044
ARPP21 (UniProt Q9UBL0)	0.924 ± 0.056	0.947 ± 0.036	0.944 ± 0.024	0.972 ± 0.042	0.915 ± 0.024	0.933 ± 0.045
TBK1 (UniProt Q9UHD2)	1 ± 0.084	0.965 ± 0.06	0.968 ± 0.056	0.929 ± 0.086	1.01 ± 0.05	0.95 ± 0.048
TMEM181 (UniProt Q9P2C4)	0.99 ± 0.054	1.04 ± 0.17	1.09 ± 0.21	1.02 ± 0.1	1.04 ± 0.12	0.978 ± 0.053
CTTNBP2NL (UniProt Q9P2B4)	0.966 ± 0.028	0.985 ± 0.043	1.02 ± 0.057	0.996 ± 0.084	0.958 ± 0.051	0.978 ± 0.047
UniProt Q9UI08-2|Q9UI08	0.904 ± 0.05	0.914 ± 0.026	0.876 ± 0.037	0.903 ± 0.047	0.86 ± 0.025	0.882 ± 0.025
INO80 (UniProt Q9ULG1)	1.2 ± 0.14	1.5 ± 0.34	1.24 ± 0.093	1.23 ± 0.18	1.34 ± 0.15	1.38 ± 0.18
TTF2 (UniProt Q9UNY4)	1.01 ± 0.035	1.01 ± 0.026	1.05 ± 0.021	1.06 ± 0.022	0.987 ± 0.011	1.01 ± 0.026
EPDR1 (UniProt Q9UM22)	1.01 ± 0.041	1 ± 0.03	0.938 ± 0.031	0.987 ± 0.053	0.927 ± 0.019	0.936 ± 0.019
HDAC6 (UniProt Q9UBN7)	0.98 ± 0.063	0.991 ± 0.051	0.955 ± 0.038	0.964 ± 0.064	0.964 ± 0.056	0.952 ± 0.049
UniProt Q9UPZ3 and related entries	1.02 ± 0.022	1.032 ± 0.0091	1.03 ± 0.085	1.06 ± 0.078	1.08 ± 0.12	1.04 ± 0.069
RBM27 (UniProt Q9P2N5)	1.43 ± 0.069	1.49 ± 0.039	1.49 ± 0.024	1.6 ± 0.079	1.525 ± 0.0033	1.56 ± 0.023
CHD7 (UniProt Q9P2D1)	1.03 ± 0.088	1.02 ± 0.067	1.04 ± 0.037	1.04 ± 0.086	1.01 ± 0.054	1.02 ± 0.059
UBQLN2 (UniProt Q9UHD9)	0.887 ± 0.11	0.907 ± 0.13	0.904 ± 0.058	0.914 ± 0.12	0.801 ± 0.043	0.762 ± 0.084
LSM7 (UniProt Q9UK45)	0.894 ± 0.029	0.923 ± 0.04	0.913 ± 0.03	0.898 ± 0.032	0.921 ± 0.052	0.894 ± 0.023
RUVBL1 (UniProt Q9Y265)	1.13 ± 0.023	1.09 ± 0.02	1.08 ± 0.02	1.1 ± 0.038	1.16 ± 0.054	1.15 ± 0.073
UniProt Q9UJ83 and related entries	0.997 ± 0.083	0.99 ± 0.052	0.984 ± 0.045	0.936 ± 0.071	0.971 ± 0.019	0.959 ± 0.039
UniProt Q9UNA1 and related entries	1 ± 0.049	0.991 ± 0.033	1.02 ± 0.06	1.01 ± 0.076	1 ± 0.033	1.03 ± 0.06
UniProt Q9ULX6 and related entries	0.947 ± 0.021	0.91 ± 0.034	0.9 ± 0.041	0.949 ± 0.12	0.928 ± 0.066	0.933 ± 0.027
UniProt Q9P275 and related entries	1.05 ± 0.065	1.08 ± 0.074	1.21 ± 0.052	1.29 ± 0.15	1.35 ± 0.17	1.44 ± 0.12
UniProt Q9UER7 and related entries	0.915 ± 0.07	0.914 ± 0.052	0.912 ± 0.056	0.983 ± 0.077	0.924 ± 0.053	0.933 ± 0.06
MAGED2 (UniProt Q9UNF1)	0.95 ± 0.032	0.9488 ± 0.0072	0.923 ± 0.011	0.961 ± 0.02	0.911 ± 0.0077	0.921 ± 0.026
LARS (UniProt Q9P2J5)	1.07 ± 0.08	0.978 ± 0.042	0.963 ± 0.028	0.922 ± 0.072	1.05 ± 0.049	0.96 ± 0.059
UniProt Q9UET6 and related entries	1.11 ± 0.1	1.11 ± 0.06	1.11 ± 0.035	1.18 ± 0.16	1.12 ± 0.1	1.09 ± 0.045
UniProt Q9P2N6-3	1.11 ± 0.049	1.06 ± 0.085	1.1 ± 0.11	1.13 ± 0.17	1.13 ± 0.16	1.2 ± 0.14
UniProt Q9UIG0 and related entries	1.02 ± 0.016	1.05 ± 0.014	1.13 ± 0.012	1.23 ± 0.019	1.28 ± 0.033	1.39 ± 0.049

Part of the list above, reformatted.
CTTNBP2NL (UniProt Q9P2B4)
  NP40-soluble protein abundance (concentration: 1mM): 0.966 ± 0.028; NP40-soluble protein abundance (concentration: 2mM): 0.985 ± 0.043; NP40-soluble protein abundance (concentration: 4mM): 1.02 ± 0.057; NP40-soluble protein abundance (concentration: 6mM): 0.996 ± 0.084; NP40-soluble protein abundance (concentration: 8mM): 0.958 ± 0.051; NP40-soluble protein abundance (concentration: 10mM): 0.978 ± 0.047
TTF2 (UniProt Q9UNY4)
  NP40-soluble protein abundance (concentration: 1mM): 1.01 ± 0.035; NP40-soluble protein abundance (concentration: 2mM): 1.01 ± 0.026; NP40-soluble protein abundance (concentration: 4mM): 1.05 ± 0.021; NP40-soluble protein abundance (concentration: 6mM): 1.06 ± 0.022; NP40-soluble protein abundance (concentration: 8mM): 0.987 ± 0.011; NP40-soluble protein abundance (concentration: 10mM): 1.01 ± 0.026
